Results taken from paper PMC8456958 (Angewandte Chemie (International Ed. in English), 2021).

Legend:
[1] = general procedure: Fmoc solid-phase peptide synthesis; 2-chlorotrityl chloride resin; Rapp S RAM resin (peptide amides, loading 220 µmol/g); Rapp S PHB resins preloaded (pepti); HCTU / diisopropylethyl amine; HATU/diisopropylethyl amine for Fmoc-Bpa-OH; conditions: for cyclisation yield: cyclisation step; for conjugation yield: conjugation step
[2] = general procedure: Fmoc solid-phase peptide synthesis; 2-chlorotrityl resin; HCTU / diisopropylethyl amine; HATU/diisopropylethyl amine for Fmoc-Bpa-OH; conditions: whole synthesis, TFA salt
[3] = general procedure: Fmoc solid-phase peptide synthesis; TentaGel S PHB resin preloaded with Fmoc-Val-OH; HCTU / diisopropylethyl amine; HATU/diisopropylethyl amine for Fmoc-Bpa-OH; conditions: whole synthesis, scale 150 µmol, TFA salt
[4] = general procedure: Fmoc solid-phase peptide synthesis; 2-chlorotrityl resin preloaded with Fmoc-Dab(Boc)-OH; HCTU / diisopropylethyl amine; HATU/diisopropylethyl amine for Fmoc-Bpa-OH; conditions: whole synthesis, scale 100 µmol, TFA salt
[5] = general procedure: Fmoc solid-phase peptide synthesis; chlorotrityl resin preloaded with Fmoc-2-Abu-OH; HCTU / diisopropylethyl amine; HATU/diisopropylethyl amine for Fmoc-Bpa-OH; conditions: whole synthesis, scale 200 µmol, TFA salt
[6] = whole synthesis, scale 100 µmol, TFA salt, run 1
[7] = whole synthesis, scale 50 µmole, TFA salt
[8] = whole synthesis, scale 150 µmol, TFA salt
[9] = whole synthesis, scale 150 µmol, TFA salt, run 1

H-cyclo[Dab-Dab(Boc)-DLeu-Leu-Dab(Boc)-Dab(Boc)-Thr(tBu)]
cyclisation yield ([1]; on crude 18, TFA salt): 61%

T-G-R-A-K-R-R-M-Q-Y-N-R-R-ßAla-Lys(N3)-Cys [9]
isolated mass [1, 6]: 12.3 mg | isolated yield [1, 6]: 4.4%

6-Methylheptanoyl-Dab-Thr-Dab-cyclo[Dab-Dab(4-pentinoyl-Bpa-Met(O2)-Oic-Abu)-DLeu-Leu-Dab- Dab-Thr]
cyclisation yield ([1]; based on crude 32, TFA salt): 5.9% based on crude 32%

6-Methylheptanoyl-Dab(Boc)-Thr(tBu)-Dab(Boc)-Dab(NH2)-Dab(Boc)-DLeu-Leu-Dab(4-pentinoyl- Bpa-Met(O2)-Oic-Abu)-Dab(Boc)-Thr(tBu)-OH
crude mass ([2]; scale 50 µmole): 84.81 mg | crude yield [1, 7]: 70%

6-Methylheptanoyl-Dab-Thr-Dab-cyclo[Dab-Dab-DLeu-Leu-Dab-Dab(4-pentinoyl-Bpa-Met(O2)-Oic-Abu)-Thr]
cyclisation yield ([1]; on crude 44, TFA salt): 67% | step yield ([1]; late stage modification step, based on crude cyclized 44, TFA salt): 19%

Fmoc-Dab(NH2)-Dab(Boc)-DLeu-Leu-Dab(Boc)-Dab(Boc)-Thr(tBu)-OH
crude mass ([2]; scale 50 µmol): 50.83 mg | crude yield ([1]; whole synthesis, scale 50 µmol, TFA salt): 77%

T-G-R-A-K-R-R-M-Q-Y-N-R-R-ßAla-Lys(N3)-Cys(3-succinimidyl-N- 5-fluorescein) [11]
conjugation yield ([1]; TFA salt, run 1): 36%

T-G-R-A-K-R-R-M-Q-Y-N-R-R-ßAla-Lys(N3) [5]
isolated mass [1, 8]: 87.7 mg | isolated yield [1, 9]: 21.5%

6-Methylheptanoyl-Dab-Thr-Dab(T-G-R-A-K-R-R-M-Q-Y-N-R-R-ßAla-norleucinamide(1H-1,2,3- triazol-4-yl)propionyl-Bpa-Met(O2)-Oic-Abu)-cyclo[Dab-Dab-DLeu-Leu-Dab-Dab-Thr]
conjugation yield ([1]; based on 27, TFA salt): 53% based on 27%

T-G-R-A-K-R-R-M-Q-Y-N-R-R-ßAla-Lys(N3)-Cys(3-succinimidyl-N- 5-fluorescein) [10]
conjugation yield ([1]; TFA salt, run 1): 20%

6-Methylheptanoyl-Dab(Boc)-Thr(tBu)-Dab(Boc)-Dab(NH2)-Dab(4-pentinoyl-Bpa-Met(O2)-Oic-Abu)- DLeu-Leu-Dab(Boc)-Dab(Boc)-Thr(tBu)-OH
crude mass [1, 7]: 73.4 mg | crude yield [1, 7]: 60%

T-G-R-A-K-R-R-M-Q-Y-N-R-R-ßAla-Lys(N3)-Cys [8]
isolated mass [1, 6]: 54.8 mg | isolated yield [1, 6]: 19.5%

Pentinoyl-ßAla-Ala-Ala-Pro-Val-OH
isolated mass [3]: 48.0 mg | isolated yield [1, 8]: 63%

6-Methylheptanoyl-Dab(4-pentinoyl-Bpa-Met(O2)-Oic-Abu)-Thr-Dab-cyclo[Dab-Dab-DLeu-Leu-Dab- Dab-Thr]
step yield ([1]; coupling step, based on 16, TFA salt): 18% based on 16%

6-Methylheptanoyl-Dab-Thr-Dab(4-pentinoyl-Bpa-Met(O2)-Oic-Abu)-cyclo[Dab-Dab-DLeu-Leu-Dab- Dab-Thr]
step yield ([1]; late stage modification step, based on 26, TFA salt): 19% based on 26%

6-Methylheptanoyl-Dab(T-G-R-A-K-R-R-M-Q-Y-N-R-R-ßAla-norleucinamide(1H-1,2,3-triazol-4- yl)propionyl-Bpa-Met(O2)-Oic-Abu)-Thr-Dab-cyclo[Dab-Dab-DLeu-Leu-Dab-Dab-Thr]
conjugation yield ([1]; TFA salt): 51%

6-Methylheptanoyl-Dab(4-pentinoyl-Bpa-Met(O2)-Oic-Abu)-Thr(tBu)-Dab(Boc)-OH
isolated yield ([1]; whole synthesis, scale 100 µmol, TFA salt): 22% | isolated mass [4]: 28.8 mg

6-Methylheptanoyl-Dab-Thr-Dab-cyclo[Dab-Dab-DLeu-Leu-Dab(4-pentinoyl-Bpa-Met(O2)-Oic-Abu)- Dab-Thr]
cyclisation yield ([1]; TFA salt): 66% | step yield ([1]; late stage modification step, based on crude 38, TFA salt): 24%

T-G-R-A-K-R-R-M-Q-Y-N-R-R-ßAla-Lys(N3) [4]
isolated yield [1, 9]: 28.1%

Pentinoyl-Bpa-Met(O2)-Oic-Abu-OH
isolated mass [5]: 25.0 mg | difficulty met ([1]; whole synthesis, TFA salt): Fmoc-Bpa-OH, which displayed sluggish reaction, was coupled with HATU/ diisopropylethyl amine as double coupling | isolated yield ([1]; whole synthesis, scale 200 µmol, TFA salt): 16.7%
